In PubChem BioAssay AID1347423 (Functional Genomics Laboratory (NCATS/FGL), 2020):
Hit rate of the full screen: of about 52,000 sequences, about 210 (0.4%) were called active.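 How the source made its calls: active means gene whose silencing raises cell survival under the drug, median off-target-corrected z-score across its silencing RNAs 2 or more; inactive means the rest.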 Some of the results follow.

Assay: Resistance to Poly (ADP-Ribose) Polymerase inhibitor: Gene Identification via Genome-wide siRNA Screen
Details: mouse BRCA2 R2336H ES cells, olaparib, CellTiter-Glo viability; stronger effect = higher value
How it was run: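 Genome-wide siRNA screen (3 siRNAs/gene, 20 nM) in mouse ES cells carrying hypomorphic BRCA2 R2336H; olaparib 500 nM added 48 h post-transfection, CellTiter-Glo viability 72 h later. Normalized to plate-median negative control; MAD z-scores, gene median, seed-adjusted.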

Row | Sequence | z-score
1 | GCUAUUCACUUGAUUCAUGTT against Sdad1 | inactive: -2.45
2 | GGGUUGUCCAAUGUGAAGGTT against 0610011F06Rik | inactive: -0.389
3 | GGCCUUUAACAGUGUUGAGTT against Plag1 | inactive: 1.68
4 | GGGAUUUCUGCACACCCUATT against A530053G22Rik | inactive: -0.617
5 | CCGACCUGAAACAGAUUAATT against Slc3a2 | inactive: -1.31
6 | GCUAUGAAGCCAUUAAGAATT against Zfp292 | inactive: 1.49
7 | GGGACAGAAUGUAAUUAAUTT against Olfr702 | inactive: -0.879
8 | GGUAGAAACAAAGAAAUAGTT against 9130023H24Rik | inactive: 0.0634
9 | GCUUGCUGACCUGAAGUGATT against Krt1-17 | inactive: -0.588
10 | GGCUUACCUGAACUUUCUGTT against 2210008A03Rik | inactive: -0.43
11 | GGAAAUCCGACCCUACAAATT against Taf12 | inactive: 0.0112
12 | GGAGACCUCCUCCAUGUUATT against Ptk6 | inactive: -0.0563
13 | GCGUACCUGGACAAUGUGUTT against Fmnl3 | inactive: -1.6
14 | GGCUCCUUUGGAGAAGUUUTT against 2610018G03Rik | inactive: 1.21
15 | GGACAUGAUCCAUAUUGCATT against Eif3s6ip | inactive: -1.24
16 | GGAACCUUGAAGCUUCUCUTT against Hrh3 | inactive: -0.994
17 | GGCAGAAACAGUCCUUGUUTT against Gfra4 | inactive: -1.22
18 | GAAGCAGGCCUGGGAUCUUTT against V1rb9 | inactive: 0.0646
19 | CCUUGAUGACGAAAACAUATT against Plekha2 | inactive: 0.756
20 | GGGAGUCCUUUUCAAACCATT against Cldn15 | inactive: -0.345
21 | GGAGCUGUGCAAGAGGAAATT against Wnt16 | inactive: -0.493
22 | GGCAAUAAGAAUCAGAAAATT against 6720480D16Rik | inactive: 1.24
23 | GGGUUUGACAAAAUUGACCTT against Nudt6 | inactive: -0.348
24 | GGUGUGACGGUGCCUAUAUTT against D10Wsu102e | inactive: -3.4
25 | GGUGCCUGAGGUUCUUUUUTT against Actrt1 | inactive: 1.2
26 | GGCAGGAGAUGGUAACUGCTT against Phc2 | inactive: 0.169

Row | Sequence | z-score
27 | GCGACGUAAAUUUUGCUUUTT against Tlr5 | inactive: 1.06
28 | GGUUGAUGUGGAGAAGGUGTT against Gnaq | inactive: -1.03
29 | GCACCUUAUGGGUAGAAAATT against Mtmr2 | inactive: 0.738
30 | GGAUCUAAGGAAGUUUCUGTT against Gfpt2 | inactive: 2.22
31 | GGCCCAACACAGAGAUACUTT against BC003236 | inactive: 1.38
32 | CAGUAGGUAUGUUCACUGGTT against Olfr1000 | inactive: -0.681
33 | GGUGUCAACCAGUUGUUUUTT against Nr2c1 | inactive: 0.389
34 | GGAUCUGGAAAAAGCAACUTT against 2410018G20Rik | inactive: -1.19
35 | GGCUCAGUGUGCCAAACUGTT against Krt2-16 | inactive: 2.21
36 | GGACCUGUUUGAUUUGGUGTT against Nf2 | inactive: -0.0653
37 | GGACAGAGAACAAAUGACCTT against 4931417E11Rik | inactive: -0.199
38 | CCUACUCUUUUCAUUGACCTT against Il8ra | inactive: 1.07
39 | GGCAAGCUUGAAUAAUGAATT against D11Wsu99e | inactive: -0.0861
40 | GCCAUUUAUUGAAACUCGCTT against Becn1 | inactive: -0.982
41 | CCAUAAAAUCAUCAUGAGATT against Apg12l | inactive: -0.501
42 | GCAACAUGUAGGCAACAUCTT against 2310042M24Rik | inactive: 1.62
43 | GGAUGAGCUCAAGAAGUCCTT against Snrpa | inactive: -1.3
44 | CGUAUAUGAUCUGCAUCAUTT against Tex292 | inactive: -0.252
45 | GCCGUUUAUUCAUUGCACUTT against G431001I09Rik | inactive: -2.1
46 | GGUCGAAAGAUUCCUGAAGTT against Hs3st1 | inactive: -0.303
47 | GGAGCUCAUGAUCGUCAAATT against 1700011A15Rik | inactive: 0.631
48 | GGUCAAGAAAUGGGCAAGCTT against Arhgdib | inactive: 0.376
49 | GGAUCUGAAGACAUGGAGATT against H2-M1 | inactive: 0.582
50 | GCCAUUACAAGAGCUGUUCTT against Myt1l | inactive: 2.09
51 | GCUGGAGAAAGCGGAGAUATT against Hes7 | inactive: -1.17
52 | CGACCCAUCCAUCUUUAUCTT against Dlgh4 | inactive: -0.709

Part of the list above, with tabs.
Row	Sequence	z-score
21	GGAGCUGUGCAAGAGGAAATT against Wnt16	inactive: -0.493
22	GGCAAUAAGAAUCAGAAAATT against 6720480D16Rik	inactive: 1.24
23	GGGUUUGACAAAAUUGACCTT against Nudt6	inactive: -0.348
24	GGUGUGACGGUGCCUAUAUTT against D10Wsu102e	inactive: -3.4
25	GGUGCCUGAGGUUCUUUUUTT against Actrt1	inactive: 1.2
26	GGCAGGAGAUGGUAACUGCTT against Phc2	inactive: 0.169
27	GCGACGUAAAUUUUGCUUUTT against Tlr5	inactive: 1.06
28	GGUUGAUGUGGAGAAGGUGTT against Gnaq	inactive: -1.03
29	GCACCUUAUGGGUAGAAAATT against Mtmr2	inactive: 0.738
30	GGAUCUAAGGAAGUUUCUGTT against Gfpt2	inactive: 2.22
31	GGCCCAACACAGAGAUACUTT against BC003236	inactive: 1.38
32	CAGUAGGUAUGUUCACUGGTT against Olfr1000	inactive: -0.681
33	GGUGUCAACCAGUUGUUUUTT against Nr2c1	inactive: 0.389
34	GGAUCUGGAAAAAGCAACUTT against 2410018G20Rik	inactive: -1.19
35	GGCUCAGUGUGCCAAACUGTT against Krt2-16	inactive: 2.21
36	GGACCUGUUUGAUUUGGUGTT against Nf2	inactive: -0.0653
37	GGACAGAGAACAAAUGACCTT against 4931417E11Rik	inactive: -0.199
38	CCUACUCUUUUCAUUGACCTT against Il8ra	inactive: 1.07
39	GGCAAGCUUGAAUAAUGAATT against D11Wsu99e	inactive: -0.0861
40	GCCAUUUAUUGAAACUCGCTT against Becn1	inactive: -0.982
41	CCAUAAAAUCAUCAUGAGATT against Apg12l	inactive: -0.501
42	GCAACAUGUAGGCAACAUCTT against 2310042M24Rik	inactive: 1.62
43	GGAUGAGCUCAAGAAGUCCTT against Snrpa	inactive: -1.3
44	CGUAUAUGAUCUGCAUCAUTT against Tex292	inactive: -0.252
45	GCCGUUUAUUCAUUGCACUTT against G431001I09Rik	inactive: -2.1
46	GGUCGAAAGAUUCCUGAAGTT against Hs3st1	inactive: -0.303
47	GGAGCUCAUGAUCGUCAAATT against 1700011A15Rik	inactive: 0.631
48	GGUCAAGAAAUGGGCAAGCTT against Arhgdib	inactive: 0.376
49	GGAUCUGAAGACAUGGAGATT against H2-M1	inactive: 0.582
50	GCCAUUACAAGAGCUGUUCTT against Myt1l	inactive: 2.09

Some values from the results shown.
Entry for CGUAUAUGAUCUGCAUCAUTT against Tex292 under z-score: inactive: -0.252
Entry for GGACCUGUUUGAUUUGGUGTT against Nf2 under z-score: inactive: -0.0653

More records.

Row | Sequence | z-score
53 | GGGCCUAAUGAUUUGAUAUTT against 2410127E18Rik | inactive: -2.05
54 | GGCCUUAGAACAAGGAAUATT against Cdk7 | inactive: 0.382
55 | GGCUUAGGGACUAUGAGGATT against Clecsf13 | inactive: -0.489
56 | GGCUGUCACGGAAAUGUAGTT against 1110014J01Rik | inactive: -0.228
57 | GCAAGACCCGUCACAAUCUTT against Slc16a9 | inactive: 1.92
58 | CCUUCAGCAAUCUCAGAAATT against Olfr295 | inactive: 1.92
59 | GCCACAGUCCAAAUCUGCATT against BC003331 | inactive: 0.967
60 | GGUUAUGUCGCUAAGGAAATT against 3200001F09Rik | inactive: 0.101
61 | GGCUGUGGAUUAAAUUAUCTT against Prkcn | inactive: 0.591
62 | GGAUAGACAUCAGAAACUATT against Ranbp17 | inactive: 0.209
63 | GGGAGUUGGUGGAAUGCUUTT against Ech1 | inactive: -0.663
64 | GGACAAUGAUUUUCUGAUUTT against Sv2b | inactive: 0.422
65 | GGCCUUUGGGAAAACAUGGTT against Zcchc14 | inactive: 0.255
66 | GCUCCAGCUUGCACUCUUGTT against 2410019G02Rik | inactive: 1.94
67 | GGGUCAUCUGUAAUUUCCATT against Cst10 | inactive: 1.51
68 | GCCUUUUACUACCAUCCCGTT against Rbm9 | inactive: 1.89
69 | CCGAUGGAUGAUCAAGACATT against Plekhf1 | inactive: 0.0852
70 | GCCAAUAGUAACCAGCCAGTT against Prkab1 | inactive: 1.4
71 | GCCUGGACCUUAAUUACUUTT against Ptpn14 | inactive: -0.611
72 | GGAUUUUUGACUGUGAUUCTT against Pak1ip1 | inactive: -0.0929
73 | GCACAACACGGCUAAACCUTT against 2810443J12Rik | inactive: -0.775
74 | CCCUUGUCCAGUGUGAGUUTT against 4732495E13Rik | inactive: -0.506
75 | GGUAAAGUGAACUGUACCUTT against 2200002K05Rik | inactive: 0.85
76 | GCUUCGUUACGACGAUGAGTT against Ndufs3 | inactive: 0.701
77 | GGCAAAAUCUCCUCUAUCUTT against Olfr905 | inactive: -0.797
78 | GGCUCCUCUACACAGGCAATT against 2310043K02Rik | inactive: -1.31

Row | Sequence | z-score
79 | GGAUGACGAUUGUUUAUCATT against Bcl11a | inactive: 0.887
80 | GCCACUACUAAUAGCAUGUTT against 5330438I03Rik | inactive: 0.24
81 | GGUGAAAUGAGAAUACUUGTT against Arts1 | inactive: 0.305
82 | AAUGUAGUCAAAUCAAAGATT against Sprr2a | inactive: -0.521
83 | GACGAUCAAGAUAUGAUGGTT against Olfr196 | inactive: 0.926
84 | GGGCUCUUUGAUAAUCACUTT against Dnajb11 | inactive: 0.318
85 | GGAACACAGAAGUGAAAAATT against Olfr1260 | inactive: -1.44
86 | GGUGACCUGUUCAGAACAUTT against Timm10 | inactive: -0.88
87 | GCUACAAGUGAUCGUCAAUTT against Schip1 | inactive: 1.01
88 | GCGGGUUAACUUGUUUGGUTT against Gm1053 | inactive: 0.891
89 | GGGUUUCAGAACUGAGUUATT against Saa1 | inactive: 1.67
90 | GGCGAAGUGGUUAAAAGUGTT against Ifnar1 | inactive: -0.285
91 | GGUGCUAUUUACCAAACUCTT against Btg2 | inactive: 0.997
92 | GGUAUUGACAGAAUGAGUUTT against Zfp109 | inactive: -0.89
93 | GGUUUGUUAUGCUAUUGUATT against Defcr4 | inactive: 0.358
94 | GCUUGAUUUUAUGUUAGCUTT against Hapln1 | inactive: -2.62
95 | CGCAUUGAUUCAUUUAAUGTT against Abca8a | inactive: 0.898
96 | GGGAUCACAUCUUAAGUAATT against 4933428M03Rik | inactive: 0.0811
97 | GGUACUGCUAAGCAAAGUCTT against Zdhhc3 | inactive: -0.0759
98 | GGAGAAGAGCCUUCUCAAGTT against Sfrs4 | inactive: -0.351
99 | CGGAAAAAUUCGGAAAGAATT against Tulp4 | inactive: -1.11
100 | GCCUCUUUAUAAUAUAAGGTT against Rnf134 | inactive: -0.745
101 | GGUGGAGGUCUGGUUUAAGTT against Gsc | inactive: 2.48
102 | GGAAAUUUUGGAGAUGAUATT against 5730444A13Rik | inactive: -0.496
103 | GGAGUUUGACAAAGAGAAATT against Mlc1 | inactive: -0.165
